# Measurements as given in the supplement of paper PMC7411640.
# This is one part of the list. Single values are uncertain here, since repeats match poorly.
# System: MDA-MB-468
# Experiment: phospho-S6 immunofluorescence (DAPI-normalised), per-plate z-score; higher = higher phospho-S6 signal (less pathway suppression)
# Conditions: 24 h
# Procedure: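 GPCR-targeted compound library (MedChemExpress HY-L006) tested on MDA-MB-468 PTEN-null TNBC cells in 384-well plates at 0.1, 1 or 10 uM, combined with vehicle, GDC0941 450 nM or lapatinib 1 uM, for 24 h. Phospho-S6 (S240/244) immunofluorescence normalised to DAPI and expressed as a per-plate z-score; values are the mean of biological triplicates.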
# [1] = compound 0.1 µM, co-treatment: GDC0941 450 nM
# [2] = compound 0.1 µM, co-treatment: lapatinib 1 uM
# [3] = compound 0.1 µM, co-treatment: vehicle
# [4] = compound 1 µM, co-treatment: GDC0941 450 nM
# [5] = compound 1 µM, co-treatment: lapatinib 1 uM
# [6] = compound 1 µM, co-treatment: vehicle
# [7] = compound 10 µM, co-treatment: GDC0941 450 nM
# [8] = compound 10 µM, co-treatment: lapatinib 1 uM
# [9] = compound 10 µM, co-treatment: vehicle
SMILES,phospho-S6 immunofluorescence (z-score) [1],phospho-S6 immunofluorescence (z-score) [2],phospho-S6 immunofluorescence (z-score) [3],phospho-S6 immunofluorescence (z-score) [4],phospho-S6 immunofluorescence (z-score) [5],phospho-S6 immunofluorescence (z-score) [6],phospho-S6 immunofluorescence (z-score) [7],phospho-S6 immunofluorescence (z-score) [8],phospho-S6 immunofluorescence (z-score) [9]
CC(C)C[C@H]1C(=O)N2CCC[C@H]2[C@]2(O)O[C@](NC(=O)[C@@H]3C=C4c5cccc6[nH]c(Br)c(c56)C[C@H]4N(C)C3)(C(C)C)C(=O)N12 [Bromocriptine (mesylate)],-0.66,-0.84,-0.47,-0.4,-0.97,-1.26,-3.83,-3.57,-1.61
"Cc1c(C(=O)c2cccc3ccccc23)c2cccc3c2n1[C@H](CN1CCOCC1)CO3 [WIN 55,212-2 (Mesylate)]",-0.41,-0.61,-1.04,-0.87,-0.92,-1.42,-2.24,-0.84,-3.25
CCC(COC(=O)c1cc(OC)c(OC)c(OC)c1)(c1ccccc1)N(C)C (stereo unspecified) [Trimebutine (maleate)],-0.72,-0.41,-0.04,0.24,-0.53,0.57,1.12,1.5,0.51
COc1ccc2[nH]cc(C3=CCNCC3)c2c1,0.49,0.52,0.84,-0.21,-0.03,0.49,-0.19,-2.58,-0.11
